Percent effect of library compounds

Values are the deposited “Percent Effect”, in %.
The record does not define 0% and 100%; most values in the screen are far below 50% and negative numbers occur (in some assays of this library far below -100).
The compounds are a random part of those screened.
A dash means the value is not listed here; it may have been measured.

A: 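Whole-parasite assay of Trypanosoma brucei over 72 hours; the read-out is not stated. Tested at 30 µM. The record gives no direction; compounds that gave an IC50 in retests scored well above the rest, so higher reads as stronger inhibition. Values scatter widely below zero; nearly all retest evidence comes from the higher of the two concentrations used. Of about 64,000 compounds tested this way, about 940 (1.5%) reached 50% or more in at least one test.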
B: 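Assay of Toxoplasma gondii numbers, read through their beta-galactosidase reporter with a colour substrate. Compounds at 10 µM. Higher reads as fewer parasites (inferred from which compounds were picked for retests). Size under these conditions: about 67,000 compounds, about 260 of them at 50% or above in at least one test.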

structure	A	B
Cn1cccc1-c1cc(C(=O)N2CCCC2C(F)(F)F)[nH]n1 (stereo not shown)	-12.8%	-2.774%
CCCOc1cc(CNC(=O)Nc2cccnc2N2CCCC2)ccn1	11.04%	-1.091%
CN(C)C(=O)Cn1cc(C(=O)NCCc2ccc(Cl)cc2Cl)nn1	-46.38%	7.308%
CCCc1n[nH]c(=O)n1[C@@H](CC)c1ccccc1	-4.303%	-20.26%
CC(=O)N1CCC(N2CC(Cc3nccc4ccn(C)c34)C2)CC1	17.42%	-3.821%
CC(CN1CCOCC1)NCC1CCN(c2cnn(C)c(=O)c2)CC1 (stereo not shown)	-8.958%	-6.746%
Cc1nc(N2CCOCC2)nc(C)c1NC(=O)Cc1ccc(Cl)cc1	-39.62%	6.692%
C=C(C)CN1CCN(Cc2nccn2C)C(C)C1 (stereo not shown)	-	-2.715%
Cc1cc(C[C@@H]2CCC[C@H]2NCc2cccc(F)c2F)on1.O=C(O)CC(O)(CC(=O)O)C(=O)O	-14.77%	-21.75%
CCC(CNC(=O)c1ccco1)N1CCc2ccccc2C1 (stereo not shown)	-18.46%	0.7585%
COc1ccc(Cl)cc1C(=O)N1CCCC(n2nc(C)nc2C)C1 (stereo not shown)	-60.6%	-
COc1ccc(C)cc1Nc1nc2c(C)nn(C)c2c(=O)n1C	-	11.49%
CCc1noc(CN2CCCN(Cc3cccs3)CC2)n1	-	5.201%
COc1ccc2c(c1)CN(Cc1nc3ccsc3c(=O)[nH]1)CC2	-36.03%	-
O=C(C1CCCN(CCc2ccc3c(c2)CCO3)C1)N1CCCC1 (stereo not shown)	-3.039%	-12.59%
Cc1cccc(-c2nc(CN(Cc3cccs3)CC3CCCO3)no2)c1 (stereo not shown)	5.808%	0.7312%
COC(=O)N1CCc2ccc(NC(=O)c3cn(C)nn3)cc2C1	38.35%	-8.315%
Cc1c(NC(=O)c2ncn[nH]2)cccc1C(=O)NC(C)(C)C	-42.66%	-19.34%
OCC1(CC2CC2)CCCN(Cc2cnc(C3CCCCC3)nc2)C1 (stereo not shown)	4.302%	2.684%
CCN(CC1CCOC1)C(=O)Nc1ccc(-n2cncn2)nc1 (stereo not shown)	-11.67%	-15.56%
O=C1CN(C(=O)C2CCOCC2)CCN1Cc1ccc(Cl)cc1	-0.1106%	0.5165%
Cc1ccc(OCCNC(=O)C(C)n2cncn2)cc1 (stereo not shown)	-115.8%	-
CC(C)c1n[nH]c(C2CN(C(=O)COc3ccc(F)cc3)CCO2)n1 (stereo not shown)	-7.287%	-3.369%

Some entries from above, unchanged:

structure	A	B
CCN(CC1CCOC1)C(=O)Nc1ccc(-n2cncn2)nc1 (stereo not shown)	-11.67%	-15.56%
CCCc1n[nH]c(=O)n1[C@@H](CC)c1ccccc1	-4.303%	-20.26%

Measurements from “University of Dundee, Small-Polar-MMV Screening Library” (2021), ChEMBL document CHEMBL3988442.